{"source": "patent US20120101076A1", "about": "“CARBONATE DERIVATIVES FOR THE TREATMENT OF COUGH” (priority 2010, published 2012)", "origin": "cited, not measured here", "test_system": "citric acid-induced cough in asthmatics", "details": "cited from earlier work", "data": [{"smiles": "CC(C)[N+]1(C)[C@@H]2CC[C@H]1C[C@@H](OC(=O)C(CO)c1ccccc1)C2", "note": "(stereo partly shown) [ipratropium bromide]", "values": [{"measurement": "citric acid-induced cough", "result": "able to diminish citric acid-induced cough"}]}]}
